Laboratory results from patent US20250283871A1, “COMPOSITIONS AND METHODS FOR MODULATING THE INTERACTION BETWEEN SS18-SSX FUSION ONCOPROTEIN AND NUCLEOSOMES” (Dana-Farber Cancer Institute, Inc., priority 2020, published 2025).

B1: PDS5A (protein, UniProt Q29RF7 1-1337, looked up)
Sister chromatid cohesion …: MDFTAQPKPATALCGVVSADGKIAYPPGVKEITDKITTDEMIKRLKMVVKTFMDMDQDSEDEKQQYLPLALHLASEFFLRNPNKDVRLLVACCLADIFRIYAPEAPYTSHDKLKDIFLFITRQLKGLEDTKSPQFNRYFYLLENLAWVKSYNICFELEDCNEIFIQLFRTLFSVINNSHNKKVQMHMLDLMSSIIMEGDGVTQELLDSILINLIPAHKNLNKQSFDLAKVLLKRTVQTIEACIANFFNQVLVLGRSSVSDLSEHVFDLIQELFAIDPHLLLSVMPQLEFKLKSNDGEERLAVVRLLAKLFGSKDSDLATQNRPLWQCFLGRFNDIHVPVRLESVKFASHCLMNHPDLAKDLTEYLKVRSHDPEEAIRHDVIVTIITAAKRDLALVNDQLLGFVRERTLDKRWRVRKEAMMGLAQLYKKYCLHGEAGKEAAEKVSWIKDKLLHIYYQNSIDDKLLVEKIFAQYLVPHNLETEERMKCLYYLYASLDPNAVKALNEMWKCQNMLRSHVRELLDLHKQPTSEANCSAMFGKLMTIAKNLPDPGKAQDFVKKFNQVLGDDEKLRSQLELLISPTCSCKQADICVREIARKLANPKQPTNPFLEMVKFLLERIAPVHIDSEAISALVKLMNKSIEGTADDEEEGVSPDTAIRSGLELLKVLSFTHPTSFHSAETYESLLQCLRMEDDKVAEAAIQIFRNTGHKIETDLPQIRSTLIPILHQKAKRGTPHQAKQAVHCIHAIFTNKEVQLAQIFEPLSRSLNADVPEQLITPLVSLGHISMLAPDQFASPMKSVVANFIVKDLLMNDRSTGEKNGKLWSPDEEVSPEVLAKVQAIKLLVRWLLGMKNNQSKSANSTLRLLSAMLVSEGDLTEQKRISKSDMSRLRLAAGSAIMKLAQEPCYHEIITPEQFQLCALVINDECYQVRQIFAQKLHKALVKLLLPLEYMAIFALCAKDPVKERRAHARQCLLKNISIRREYIKQNPMATEKLLSLLPEYVVPYMIHLLAHDPDFTRSQDVDQLRDIKECLWFMLEVLMTKNENNSHAFMKKMAENIKLTRDAQSPDESKTNEKLYTVCDVALCVINSKSALCNADSPKDPVLPMKFFTQPEKDFCNDKSYISEETRVLLLTGKPKPAGVLGAVNKPLSATGRKPYVRSTGTETGSNINVNSELNPSTGNRSREQSSEAAETGVSENEENPVRIISVTPVKNIDPVKNKEINSDQATQGNISSDRGKKRTVTAAGAENIQQKTDEKVDESGPPAPSKPRRGRRPKSESQGNATKNDDLNKPINKGRKRAAVGQESPGGLEAGNAKAPKLQDLAKKAAPAERQIDLQR
B2: ACADM (protein, UniProt P11310 26-421, looked up)
Medium-chain specific …: KANRQREPGLGFSFEFTEQQKEFQATARKFAREEIIPVAAEYDKTGEYPVPLIRRAWELGLMNTHIPENCGGLGLGTFDACLISEELAYGCTGVQTAIEGNSLGQMPIIIAGNDQQKKKYLGRMTEEPLMCAYCVTEPGAGSDVAGIKTKAEKKGDEYIINGQKMWITNGGKANWYFLLARSDPDPKAPANKAFTGFIVEADTPGIQIGRKELNMGQRCSDTRGIVFEDVKVPKENVLIGDGAGFKVAMGAFDKTRPVVAAGAVGLAQRALDEATKYALERKTFGKLLVEHQAISFMLAEMAMKVELARMSYQRAAWEVDSGRRNTYYASIAKAFAGDIANQLATDAVQILGGNGFNTEYPVEKLMRDAKIYQIYEGTSQIQRLIVAREHIDKYKN
B3: DDX28 (protein, UniProt Q9NUL7 1-540, looked up)
Probable ATP-dependent RNA …: MALTRPVRLFSLVTRLLLAPRRGLTVRSPDEPLPVVRIPVALQRQLEQRQSRRRNLPRPVLVRPGPLLVSARRPELNQPARLTLGRWERAPLASQGWKSRRARRDHFSIERAQQEAPAVRKLSSKGSFADLGLEPRVLHALQEAAPEVVQPTTVQSSTIPSLLRGRHVVCAAETGSGKTLSYLLPLLQRLLGQPSLDSLPIPAPRGLVLVPSRELAQQVRAVAQPLGRSLGLLVRDLEGGHGMRRIRLQLSRQPSADVLVATPGALWKALKSRLISLEQLSFLVLDEADTLLDESFLELVDYILEKSHIAEGPADLEDPFNPKAQLVLVGATFPEGVGQLLNKVASPDAVTTITSSKLHCIMPHVKQTFLRLKGADKVAELVHILKHRDRAERTGPSGTVLVFCNSSSTVNWLGYILDDHKIQHLRLQGQMPALMRVGIFQSFQKSSRDILLCTDIASRGLDSTGVELVVNYDFPPTLQDYIHRAGRVGRVGSEVPGTVISFVTHPWDVSLVQKIELAARRRRSLPGLASSVKEPLPQAT
B4: ATP2A2 (protein, UniProt P16615 1-1042, looked up)
Sarcoplasmic/endoplasmic …: MENAHTKTVEEVLGHFGVNESTGLSLEQVKKLKERWGSNELPAEEGKTLLELVIEQFEDLLVRILLLAACISFVLAWFEEGEETITAFVEPFVILLILVANAIVGVWQERNAENAIEALKEYEPEMGKVYRQDRKSVQRIKAKDIVPGDIVEIAVGDKVPADIRLTSIKSTTLRVDQSILTGESVSVIKHTDPVPDPRAVNQDKKNMLFSGTNIAAGKAMGVVVATGVNTEIGKIRDEMVATEQERTPLQQKLDEFGEQLSKVISLICIAVWIINIGHFNDPVHGGSWIRGAIYYFKIAVALAVAAIPEGLPAVITTCLALGTRRMAKKNAIVRSLPSVETLGCTSVICSDKTGTLTTNQMSVCRMFILDRVEGDTCSLNEFTITGSTYAPIGEVHKDDKPVNCHQYDGLVELATICALCNDSALDYNEAKGVYEKVGEATETALTCLVEKMNVFDTELKGLSKIERANACNSVIKQLMKKEFTLEFSRDRKSMSVYCTPNKPSRTSMSKMFVKGAPEGVIDRCTHIRVGSTKVPMTSGVKQKIMSVIREWGSGSDTLRCLALATHDNPLRREEMHLEDSANFIKYETNLTFVGCVGMLDPPRIEVASSVKLCRQAGIRVIMITGDNKGTAVAICRRIGIFGQDEDVTSKAFTGREFDELNPSAQRDACLNARCFARVEPSHKSKIVEFLQSFDEITAMTGDGVNDAPALKKAEIGIAMGSGTAVAKTASEMVLADDNFSTIVAAVEEGRAIYNNMKQFIRYLISSNVGEVVCIFLTAALGFPEALIPVQLLWVNLVTDGLPATALGFNPPDLDIMNKPPRNPKEPLISGWLFFRYLAIGCYVGAATVGAAAWWFIAADGGPRVSFYQLSHFLQCKEDNPDFEGVDCAIFESPYPMTMALSVLVTIEMCNALNSLSENQSLLRMPPWENIWLVGSICLSMSLHFLILYVEPLPLIFQITPLNVTQWLMVLKISLPVILMDETLKFVARNYLEPGKECVQPATKSCSFSACTDGISWPFVLLIMPLVIWVYSTDTNFSDMFWS
B5: SLC16A1 (protein, UniProt P53985 1-500, looked up)
Monocarboxylate transporter 1: MPPAVGGPVGYTPPDGGWGWAVVIGAFISIGFSYAFPKSITVFFKEIEGIFHATTSEVSWISSIMLAVMYGGGPISSILVNKYGSRIVMIVGGCLSGCGLIAASFCNTVQQLYVCIGVIGGLGLAFNLNPALTMIGKYFYKRRPLANGLAMAGSPVFLCTLAPLNQVFFGIFGWRGSFLILGGLLLNCCVAGALMRPIGPKPTKAGKDKSKASLEKAGKSGVKKDLHDANTDLIGRHPKQEKRSVFQTINQFLDLTLFTHRGFLLYLSGNVIMFFGLFAPLVFLSSYGKSQHYSSEKSAFLLSILAFVDMVARPSMGLVANTKPIRPRIQYFFAASVVANGVCHMLAPLSTTYVGFCVYAGFFGFAFGWLSSVLFETLMDLVGPQRFSSAVGLVTIVECCPVLLGPPLLGRLNDMYGDYKYTYWACGVVLIISGIYLFIGMGINYRLLAKEQKANEQKKESKEEETSIDVAGKPNEVTKAAESPDQKDTDGGPKEEESPV
B6: AGK (protein, UniProt Q53H12 1-422, looked up)
Acylglycerol kinase, …: MTVFFKTLRNHWKKTTAGLCLLTWGGHWLYGKHCDNLLRRAACQEAQVFGNQLIPPNAQVKKATVFLNPAACKGKARTLFEKNAAPILHLSGMDVTIVKTDYEGQAKKLLELMENTDVIIVAGGDGTLQEVVTGVLRRTDEATFSKIPIGFIPLGETSSLSHTLFAESGNKVQHITDATLAIVKGETVPLDVLQIKGEKEQPVFAMTGLRWGSFRDAGVKVSKYWYLGPLKIKAAHFFSTLKEWPQTHQASISYTGPTERPPNEPEETPVQRPSLYRRILRRLASYWAQPQDALSQEVSPEVWKDVQLSTIELSITTRNNQLDPTSKEDFLNICIEPDTISKGDFITIGSRKVRNPKLHVEGTECLQASQCTLLIPEGAGGSFSIDSEEYEAMPVEVKLLPRKLQFFCDPRKREQMLTSPTQ
B7: PHGDH (protein, UniProt O43175 2-533, looked up)
D-3-phosphoglycerate …: AFANLRKVLISDSLDPCCRKILQDGGLQVVEKQNLSKEELIAELQDCEGLIVRSATKVTADVINAAEKLQVVGRAGTGVDNVDLEAATRKGILVMNTPNGNSLSAAELTCGMIMCLARQIPQATASMKDGKWERKKFMGTELNGKTLGILGLGRIGREVATRMQSFGMKTIGYDPIISPEVSASFGVQQLPLEEIWPLCDFITVHTPLLPSTTGLLNDNTFAQCKKGVRVVNCARGGIVDEGALLRALQSGQCAGAALDVFTEEPPRDRALVDHENVISCPHLGASTKEAQSRCGEEIAVQFVDMVKGKSLTGVVNAQALTSAFSPHTKPWIGLAEALGTLMRAWAGSPKGTIQVITQGTSLKNAGNCLSPAVIVGLLKEASKQADVNLVNAKLLVKEAGLNVTTSHSPAAPGEQGFGECLLAVALAGAPYQAVGLVQGTTPVLQGLNGAVFRPEVPLRRDLPLLLFRTQTSDPAMLPTMIGLLAEAGVRLLSYQTSLVSDGETWHVMGISSLLPSLEAWKQHVTEAFQFHF

System: BAF complex subunits and histone proteins
Assay: Mass spectrometry proteomics of purified HA-SS18 WT and HA-SS18-SSX1 complexes (Tables 5A-5E)
Set-up: species or system human
Details: HEK-293T; for Total (total peptides) / Unique (unique peptides): HA-SS18SSX1 purification, NE (soluble nuclear extract) fraction, peptides per identified protein; for Total (peptides) / Unique (peptides): HA-SS18WT_NE_peptides: HA-SS18 WT complexes purified from nuclear extract (NE), label = protein identified (Gene Symbol)

Molecule	Total (total peptides)	Unique (unique peptides)	Total (peptides)	Unique (peptides)
B1	8	8	7	7
B2	8	8	10	9
B3	8	8	6	6
B4	8	7	15	12
B5	8	6	10	5
B6	7	7	11	10
B7	7	7	6	5
